Measurements taken from US20140360376A1, “RECOVERY OF HIGHER ALCOHOLS FROM DILUTE AQUEOUS SOLUTIONS” (GEVO, INC., priority 2007, published 2014).

Assays:
Type in all cases: physicochemical
[1] = Enrichment of alcohol/water solutions on 3 Angstrom molecular sieve columns; details: for Cproduct/CFeed: alcohol concentration in product stream to feed stream; for Enrichment ROH/H2O, product stream: downstream of 3 Angstrom molecular sieve column, about 10 ml/min; for Enrichment ROH/H2O, feed stream: feed to 3 Angstrom molecular sieve column
[2] = Vacuum distillation of aqueous alcohol solutions at approximately 50 mBar
[3] = Azeotropic distillation of fermentation broth at about 155 mbar; details: fermentation solution containing 6 g/L isobutanol, 155 mbar absolute
[4] = Azeotropic distillation of dilute aqueous alcohol solution at about 990 mbar; details: […] isobutanol or […] 1-butanol in water
[5] = Vacuum distillation with packed bead reflux column at approximately 75 mBar
[6] = 5 g/L solution, approximately 50 mBar
[7] = 5 g/L solution, approximately 50 mBar (single phase material)
[8] = 15 g/L solution, approximately 50 mBar
[9] = 40 g/L solution, approximately 50 mBar

Row | Compound | Cproduct/CFeed [1] | Enrichment ROH/H2O, product stream [1] | Enrichment ROH/H2O, feed stream [1] | Concentration in Vapor Phase (increase from starting solution) [2, 6] | Final Pot alcohol concentration [2, 6] | Collection: Heavy alcohol concentration [2, 7] | Collection: Heavy alcohol concentration [2, 8] | Collection: Light alcohol concentration [2, 8] | Concentration in Vapor Phase (increase from starting solution) [2, 8] | Final Pot alcohol concentration [2, 8] | Collection: Heavy alcohol concentration [2, 9] | Collection: Light alcohol concentration [2, 9] | Concentration in Vapor Phase (increase from starting solution) [2, 9] | Final Pot alcohol concentration [2, 9] | further results
1 | CC(C)CCO [Isopentanol, isopentanol] | 1.1 | 2724 | 9 | 7x | 3.4 g/L | 31.2 g/L | 34.1 g/L | 724.7 g/L | 17x | 10.2 g/L | 35.9 g/L | 763.7 g/L | 10x | 23.7 g/L | 
2 | CC(C)O [Isopropanol, isopropanol] | 1.1 | 339 | 14 | 25x | 3.8 g/L | 126.3 g/L | 184.2 g/L |  | 12x | 12.3 g/L | 347.5 g/L |  | 7x | 31.9 g/L | 
3 | CC(C)CO [i-BuOH, 2-methyl-1-propanol] |  | 1147 | 6 | 21x | 3.5 g/L | 86.7 g/L | 86.9 g/L | 717.8 g/L | 17x | 10.7 g/L | 91.9 g/L | 706.6 g/L | 10x | 36.8 g/L | Post distillation pot sample [3]: 3 g/L; Composition of the light phase of overhead condensate ([3]; 27-30° C.): 623 g/L; Alcohol concentration of heavy water rich phase of overhead condensate [4]: 86 g/L; Alcohol concentration of light phase of overhead condensate [4]: 670 g/L; Alcohol concentration of post distillation sample in flask [4]: 17 g/L; Isobutanol concentration in the reaction pot after second part ([5]; maximum pot temperature 40° C.): 1.5 g/L; Isobutanol concentration in the distillation pot after first part ([5]; single phase solution from 400 L fermentation): 17 g/L
